Test [1] addresses T1, SINAT2-FLAG (Arabidopsis thaliana) (UniProt Q9M2P4).
T1 sequence: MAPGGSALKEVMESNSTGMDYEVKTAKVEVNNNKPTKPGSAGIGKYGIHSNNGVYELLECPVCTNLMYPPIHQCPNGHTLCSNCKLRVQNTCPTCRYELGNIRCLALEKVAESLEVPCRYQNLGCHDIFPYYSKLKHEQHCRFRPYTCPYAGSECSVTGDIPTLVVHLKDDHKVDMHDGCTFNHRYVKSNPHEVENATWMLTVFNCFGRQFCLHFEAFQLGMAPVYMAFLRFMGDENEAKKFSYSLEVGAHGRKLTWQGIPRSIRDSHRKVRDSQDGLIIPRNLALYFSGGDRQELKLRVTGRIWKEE
Kind of test: co-IP; anti-FLAG M2 agarose precipitated SINAT2-FLAG or SINAT5-FLAG from extracts of 2-week-old SINAT-FLAG CRY1-Myc plants; CRY1-Myc detected with anti-Myc; also after 6 h of dark or blue light (interaction stronger in the dark).

Test [2] addresses phyB-GFP (Arabidopsis thaliana) (UniProt P14713). Description: co-IP; anti-GFP gel precipitated phyB-GFP from extracts of 2-week-old SINAT2-FLAG phyB-GFP or SINAT5-FLAG phyB-GFP plants; SINAT-FLAG detected with anti-FLAG.
The target in test [3] is T2, phyB-N-GST (Arabidopsis thaliana, UniProt P14713 1-645).
T2 construct: phytochrome B (phyB), Arabidopsis thaliana, N-terminus, amino acids 1-645; also called N-terminus of phytochrome B; source: E. coli, purified (glutathione resin)
T2 sequence (looked up): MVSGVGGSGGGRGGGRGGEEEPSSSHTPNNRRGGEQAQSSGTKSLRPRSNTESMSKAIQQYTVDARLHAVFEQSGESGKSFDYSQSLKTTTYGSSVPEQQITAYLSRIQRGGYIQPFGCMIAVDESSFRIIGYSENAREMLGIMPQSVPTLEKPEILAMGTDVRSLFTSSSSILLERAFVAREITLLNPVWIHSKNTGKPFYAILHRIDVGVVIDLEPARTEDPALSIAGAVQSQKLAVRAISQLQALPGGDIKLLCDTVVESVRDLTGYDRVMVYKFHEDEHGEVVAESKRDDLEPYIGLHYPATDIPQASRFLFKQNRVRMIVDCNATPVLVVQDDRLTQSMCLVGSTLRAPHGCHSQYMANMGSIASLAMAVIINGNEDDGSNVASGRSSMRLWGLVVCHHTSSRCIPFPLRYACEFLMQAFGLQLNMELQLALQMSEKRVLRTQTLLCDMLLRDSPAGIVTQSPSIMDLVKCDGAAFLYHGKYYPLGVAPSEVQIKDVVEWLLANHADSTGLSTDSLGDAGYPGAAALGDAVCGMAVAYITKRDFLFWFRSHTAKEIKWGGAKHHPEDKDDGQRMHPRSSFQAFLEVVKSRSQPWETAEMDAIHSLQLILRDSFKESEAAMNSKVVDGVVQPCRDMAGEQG
Description: pull-down; semi-in vivo pull-down: GST fusion pre-incubated with GST beads at 4°C for 1 h, incubated with total protein extract of 2-week-old SINAT2-FLAG or SINAT5-FLAG plants (100 mM Tris-HCl pH 7.5, 300 mM NaCl, 2 mM EDTA, 1% Triton X-100, 10% glycerol, 50 uM MG132); washed with 1x PBS, 0.1% Triton X-100; anti-FLAG blot; only the target purified.

Test [4] addresses T3, phyB-C-GST (Arabidopsis thaliana, UniProt P14713 646-1172).
T3 construct: phytochrome B (phyB), Arabidopsis thaliana, C-terminus, amino acids 646-1,172; Cloned into pGEX-4T-1; also called C-terminus of phytochrome B; source: E. coli BL21 (DE3) pLysS, purified (glutathione resin)
T3 sequence (looked up): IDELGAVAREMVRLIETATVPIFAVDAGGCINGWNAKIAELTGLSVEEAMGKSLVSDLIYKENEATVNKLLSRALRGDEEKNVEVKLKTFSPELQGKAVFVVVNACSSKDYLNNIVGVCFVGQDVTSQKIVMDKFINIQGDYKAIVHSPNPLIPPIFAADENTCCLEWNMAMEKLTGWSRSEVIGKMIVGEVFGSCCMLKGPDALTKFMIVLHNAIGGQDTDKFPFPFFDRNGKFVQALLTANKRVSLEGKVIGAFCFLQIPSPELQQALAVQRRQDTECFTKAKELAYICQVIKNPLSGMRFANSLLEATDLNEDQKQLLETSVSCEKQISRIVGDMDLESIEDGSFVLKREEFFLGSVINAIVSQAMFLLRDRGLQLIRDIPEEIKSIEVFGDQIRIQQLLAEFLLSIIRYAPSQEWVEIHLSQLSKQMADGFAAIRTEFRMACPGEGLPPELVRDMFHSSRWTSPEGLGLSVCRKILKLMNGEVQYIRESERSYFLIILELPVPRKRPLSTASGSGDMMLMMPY
The description is as above.

The target of test [5] is T4, CRY1-N-GST (Arabidopsis thaliana, UniProt Q43125 1-490).
T4 construct: cryptochrome 1 (CRY1), Arabidopsis thaliana, N-terminus, amino acids 1-490; Cloned into pGEX-4T-1; also called N-terminus of cryptochrome 1; source: E. coli BL21 (DE3) pLysS, purified (glutathione resin)
The test is described as above.

For test [6], the target named is T5, CRY1-C-GST (Arabidopsis thaliana) (UniProt Q43125).
T5 sequence: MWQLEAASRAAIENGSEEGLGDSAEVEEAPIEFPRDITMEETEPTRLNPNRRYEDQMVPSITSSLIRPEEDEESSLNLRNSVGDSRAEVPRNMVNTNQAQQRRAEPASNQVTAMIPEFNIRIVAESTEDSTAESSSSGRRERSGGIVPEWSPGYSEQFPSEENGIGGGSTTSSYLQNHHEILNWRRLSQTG
The description is as above.

The target of test [7] is CRY1 fused to C-terminal YFP (pXY104-cYFP) (Arabidopsis thaliana) (UniProt Q43125). Kind of test: split reporter; BiFC: SINAT constructs fused to nYFP, phyB or CRY1 fused to cYFP, in N. benthamiana pavement cells after Agrobacterium infiltration; YFP by confocal microscopy.
For test [8], the target named is phyB fused to C-terminal YFP (pXY104-cYFP) (Arabidopsis thaliana) (UniProt P14713). The description is as above.

These are yes or no findings as the source states them, for the method shown. Binding seen in cells or lysates may run through a third protein. Some entries that bind do so weakly or less than the wild type. For some of these results: Sequences can lack the tags named with a protein.

As to CRY1-Myc (from UniProt Q43125 1-681), the binding entry in test [1] is listed as “binds”.

B1: SINAT2-His (natural protein, Arabidopsis thaliana, UniProt Q9M2P4 1-308, looked up)
chain: MAPGGSALKEVMESNSTGMDYEVKTAKVEVNNNKPTKPGSAGIGKYGIHSNNGVYELLECPVCTNLMYPPIHQCPNGHTLCSNCKLRVQNTCPTCRYELGNIRCLALEKVAESLEVPCRYQNLGCHDIFPYYSKLKHEQHCRFRPYTCPYAGSECSVTGDIPTLVVHLKDDHKVDMHDGCTFNHRYVKSNPHEVENATWMLTVFNCFGRQFCLHFEAFQLGMAPVYMAFLRFMGDENEAKKFSYSLEVGAHGRKLTWQGIPRSIRDSHRKVRDSQDGLIIPRNLALYFSGGDRQELKLRVTGRIWKEE
notes: SINAT2 (SINA of Arabidopsis thaliana 2), At3g58040; Printed both as SINAT2-His (pull-down) and His-SINAT2 (ubiquitination assay); also called His-SINAT2
As to B1, the binding result in test [2], in test [3], in test [4], in test [5] and in test [6] was “binds” throughout.

B2: SINAT2^C63S (BiFC construct) (protein, UniProt Q9M2P4 1-308)
chain: MAPGGSALKEVMESNSTGMDYEVKTAKVEVNNNKPTKPGSAGIGKYGIHSNNGVYELLECPVSTNLMYPPIHQCPNGHTLCSNCKLRVQNTCPTCRYELGNIRCLALEKVAESLEVPCRYQNLGCHDIFPYYSKLKHEQHCRFRPYTCPYAGSECSVTGDIPTLVVHLKDDHKVDMHDGCTFNHRYVKSNPHEVENATWMLTVFNCFGRQFCLHFEAFQLGMAPVYMAFLRFMGDENEAKKFSYSLEVGAHGRKLTWQGIPRSIRDSHRKVRDSQDGLIIPRNLALYFSGGDRQELKLRVTGRIWKEE
Take B2: the binding entry in test [7] and in test [8] was “binds” in each case.

B3: SINAT4^C67S (BiFC construct) (protein, UniProt Q9STN8 1-327)
chain: METDSMECVSSTGNEIHQNGNGHQSYQFSSTKTHGGAAAAAVVTNIVGPTATAPATSVYELLECPVSTYSMYPPIHQCHNGHTLCSTCKVRVHNRCPTCRQELGDIRCLALEKVAESLELPCKFYNLGCPEIFPYYSKLKHESLCNFRPYSCPYAGSECGIVGDIPFLVAHLRDDHKVDMHAGSTFNHRYVKSNPREVENATWMLTVFHCFGQYFCLHFEAFQLGMGPVYMAFLRFMGDEEDARSYSYSLEVGGSGRKLTWEGTPRSIRDSHRKVRDSNDGLIIQRNMALFFSGGDRKELKLRVTGKIWKEQHSPDSGLSIPNLSSS
Consider B3, for which the binding result in test [7] and in test [8] was “binds” throughout.
